The other results are listed elsewhere or left out.
target: OsWRKY34 (Oryza sativa, UniProt Q0JBA9 1-250); assay: protein-binding microarray (RPBM); PBS, 2% BSA, 51.3 ng/ul salmon testes DNA, 50 uM zinc acetate, 200 nM TF, 25 C, 1 h; high values mean tight binding; details: protein: recombinant; tags: N-terminal polyhistidine and DsRed monomer fusion (pET32a); label: CyDye5-dUTP incorporated in the synthesized complementary strand; 3' TTTTT single-stranded linker to array surface; dsDNA, one strand shown
Method in brief: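 Using Ni–NTA, transcription factors fused N-terminally to polyhistidine and DsRed were purified after expression in E. coli BL21-CodonPlus. These were incubated at 200 nM with a blocked, double-stranded custom Agilent array for 1 h at 25 °C in a buffer containing 50 µM zinc acetate, and the array was washed. The binding signal is per-feature fluorescence intensity (arbitrary units) on an Axon 4000B scanner.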

Protein sequences, listed by entry. Tags and fused reporters are not part of them.
UniProt Q0JBA9, entry or part of it: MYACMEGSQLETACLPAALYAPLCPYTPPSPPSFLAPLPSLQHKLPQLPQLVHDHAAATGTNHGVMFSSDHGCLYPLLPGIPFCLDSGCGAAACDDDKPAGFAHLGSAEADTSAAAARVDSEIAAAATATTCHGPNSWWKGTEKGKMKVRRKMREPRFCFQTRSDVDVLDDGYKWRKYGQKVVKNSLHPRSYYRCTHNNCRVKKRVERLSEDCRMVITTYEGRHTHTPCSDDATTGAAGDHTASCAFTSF

| Sequence | binding signal |
| --- | --- |
| TGAGTCTTCACAATCCCATGTCACATGATCATGTGATCTTCGGAGTCACCTAGTGCAG | 9860 fluorescence intensity (a.u.) |
| CCCGCGCGCCATCATATCGTCCTCGAGCCCCGTGCGCCATCGGAGTCACCTAGTGCAG | 10200 fluorescence intensity (a.u.) |
| TCTCACTCTCGAGCCATCGTCTTCAGCTCGCTCATTACTGCGGAGTCACCTAGTGCAG | 9030 fluorescence intensity (a.u.) |
| TACTCCTTATATTCCTTCATTTTTCAGCCTCGATCAGCTCCGGAGTCACCTAGTGCAG | 8130 fluorescence intensity (a.u.) |
| CTCCCTCCTCCTGCCTCGCGCCACCTTCGCCGCCACCACCCGGAGTCACCTAGTGCAG | 8530 fluorescence intensity (a.u.) |
| CATTTAGCTAAAAGAACATATCTTCATCTTATATTTCTTTCGGAGTCACCTAGTGCAG | 8990 fluorescence intensity (a.u.) |
| TACATATCCGCTTTTCAGCCTATCCAGTTTGATTAAGAAACGGAGTCACCTAGTGCAG | 8330 fluorescence intensity (a.u.) |
| TATACCTTTTCAGCTCTGTTTCGAAGAAAGATTTTTCTTTCGGAGTCACCTAGTGCAG | 8180 fluorescence intensity (a.u.) |
| TTGGATCTGCTCTCTGTTCTTATCGCTGTGCGTGTGTGTGCGGAGTCACCTAGTGCAG | 8320 fluorescence intensity (a.u.) |
| ATTGGTCAAATTTTAAATATTGATTTGCTTAGACTTCTTACGGAGTCACCTAGTGCAG | 8170 fluorescence intensity (a.u.) |
| CCTCTCTTTCTCTCACTCTCTGTGACTCTTGTCTTTTTGTCGGAGTCACCTAGTGCAG | 8390 fluorescence intensity (a.u.) |
| GCTTGAGCTGCTTGTTCTTCTTCTACCTCCTGCACTCGCGCGGAGTCACCTAGTGCAG | 8340 fluorescence intensity (a.u.) |
| CTCTCTCTCTCTCTCTCTATAGCTTTGCTTGATCATATCACGGAGTCACCTAGTGCAG | 9810 fluorescence intensity (a.u.) |
| TCGTGTCTTCTATTTTGCTCAATTTTGAAAATTAACGTTCCGGAGTCACCTAGTGCAG | 9220 fluorescence intensity (a.u.) |
| TTTCTCCATACTCCATACATTACCCTGAATATTATTTTATCGGAGTCACCTAGTGCAG | 9800 fluorescence intensity (a.u.) |
| TCAGCTGCCACAAGCCTCAATTGTGCCACTTCATTCATTGCGGAGTCACCTAGTGCAG | 8270 fluorescence intensity (a.u.) |
| TGTAGCTCAATTCTTCTGCCAGTCTTCCGAAGCCCAACATCGGAGTCACCTAGTGCAG | 8030 fluorescence intensity (a.u.) |
| CCTCCTCGACGTCGCCTCCTCCCTCTTCGTCGACACCTCACGGAGTCACCTAGTGCAG | 8690 fluorescence intensity (a.u.) |
| CTTTAAACAGTTTGAGTGAATTTAGGGGTACATATTTCTGCGGAGTCACCTAGTGCAG | 8850 fluorescence intensity (a.u.) |
| GGACTCTGTTTTTTCTTTTTCTCCGATTAATGTGAGAATTCGGAGTCACCTAGTGCAG | 8120 fluorescence intensity (a.u.) |
| GCCGCCACCACTTAGCCTCGCCGCCAGCTGCCTCCCCGCTCGGAGTCACCTAGTGCAG | 11900 fluorescence intensity (a.u.) |
| GAATTTGTTTCCACGACCTCTATTTTACTGAAATAACATGCGGAGTCACCTAGTGCAG | 9590 fluorescence intensity (a.u.) |
| TTTCTCATTTCATGTGTGGCTATTGGCTAATTAGCCATTTCGGAGTCACCTAGTGCAG | 11500 fluorescence intensity (a.u.) |

2 records drawn at random from the list so far:

| Sequence | binding signal |
| --- | --- |
| CCTCCTCGACGTCGCCTCCTCCCTCTTCGTCGACACCTCACGGAGTCACCTAGTGCAG | 8690 fluorescence intensity (a.u.) |
| TTTCTCATTTCATGTGTGGCTATTGGCTAATTAGCCATTTCGGAGTCACCTAGTGCAG | 11500 fluorescence intensity (a.u.) |
